{
  "source": "patent US20110009469A1",
  "about": "“COMPOSITIONS AND METHODS OF TREATING NEOPLASIA” (The Johns Hopkins University, priority 2007, published 2011)",
  "test_system": "miR-143/145 primary transcript in HPNE-Kras^G12D cells",
  "test": "quantitative RT-PCR of miR-143/145 primary transcript in HPNE-Kras^G12D cells",
  "format": "cell-based",
  "conditions": "HPNE-Kras^G12D cells treated with inhibitor; qRT-PCR",
  "text": "Vista was used to generate pairwise alignments between the genomic sequence from human (May 2004 assembly) and the indicated species. The graph is a plot of nucleotide identity for a 100-bp sliding window centered at a given position. […] Expression of RNA transcripts was normalized to β-actin. FIG. 3C is a graph showing the results of a quantitative RT-PCR analysis of miR-143 and miR-145 expression in the cell lines described above. miRNA expression was normalized to 18S RNA. Error bars represent standard deviations.\nU6 served as a loading control. […] Error bars represent standard deviations.\nHPNE-Kras^G12D cells were infected with the anti-RREB-1 lentivirus-shRNA construct and selected in neomycin.\nKras activity leads to activation of both the Map Kinase (MAPK) cascade (also known as the RAF/MEK/MAPK pathway) and the phosphatidylinositol-3 kinase (PI3K) pathway. In order to determine which of these downstream effector pathways is involved in the Kras-RREB1-miR-143/145 pathway, levels of miR-143 and miR-145 were examined in HPNE-Kras^G12D cells treated with specific inhibitors that target MAPK and PI3K.",
  "note": "For at least one compound, name, drawing or mass did not settle the structure.",
  "data": [
    {"smiles": "O=c1cc(N2CCOCC2)oc2c(-c3ccccc3)cccc12", "note": "[LY294002]", "values": [
      {"measurement": "level of the miR-143/145 primary transcript", "value": "but not LY294002 treatment, increased"}
    ]}
  ]
}
